# From the supplement of paper PMC8728848
# The other results are listed elsewhere or left out.
# B1: DC-Sign-R (Homo sapiens), Q9H2X3 (protein)
# chain: MSDSKEPRVQQLGLLEEDPTTSGIRLFPRDFQFQQIHGHKSSTGCLGHGALVLQLLSFMLLAGVLVAILVQVSKVPSSLSQEQSEQDAIYQNLTQLKAAVGELSEKSKLQEIYQELTQLKAAVGELPEKSKLQEIYQELTRLKAAVGELPEKSKLQEIYQELTRLKAAVGELPEKSKLQEIYQELTRLKAAVGELPEKSKLQEIYQELTELKAAVGELPEKSKLQEIYQELTQLKAAVGELPDQSKQQQIYQELTDLKTAFERLCRHCPKDWTFFQGNCYFMSNSQRNWHDSVTACQEVRAQLVVIKTAEEQNFLQLQTSRSNRFSWMGLSDLNQEGTWQWVDGSPLSPSFQRYWNSGEPNNSGNEDCAEFSGSGWNDNRCDVDNYWICKKPAACFRDE
# Tests used:
# Assay in all cases: glycan array binding signal (z-score within array); higher = stronger binding
# Settings in all cases: glycan notation: IUPAC condensed, linker removed
# [1] = target: Gal(b1-4)GlcNAc(b1-2)Man(a1-6)[GlcNAc(b1-2)Man(a1-3)]Man(b1-4)GlcNAc(b1-4)GlcNAc
# In short: (§1)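 The Consortium for Functional Glycomics database supplied 3228 glycan arrays, of which those lacking an available protein sequence were dropped. The binding signal, a within-array Z-score, was averaged across arrays of the same protein sequence and across linkers. Negative scores can be read as non-binding.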
# [2] = target: Gal(b1-4)GlcNAc(b1-2)Man(a1-6)[Man(a1-3)]Man(b1-4)GlcNAc(b1-4)GlcNAc
# In short: as §1
# [3] = target: Gal(b1-4)GlcNAc(b1-2)[Gal(b1-4)GlcNAc(b1-4)]Man(a1-3)[Gal(b1-4)GlcNAc(b1-2)Man(a1-6)]Man(b1-4)GlcNAc(b1-4)GlcNAc
# In short: as §1
# [4] = target: Gal(b1-4)GlcNAc(b1-2)[Gal(b1-4)GlcNAc(b1-4)]Man(a1-3)[Gal(b1-4)GlcNAc(b1-2)[Gal(b1-4)GlcNAc(b1-6)]Man(a1-6)]Man(b1-4)GlcNAc(b1-4)GlcNAc
# In short: as §1
# [5] = target: Gal(b1-4)GlcNAc(b1-2)[Gal(b1-4)GlcNAc(b1-4)]Man(a1-3)[GlcNAc(b1-4)][Gal(b1-4)GlcNAc(b1-2)Man(a1-6)]Man(b1-4)GlcNAc(b1-4)GlcNAc
# In short: as §1
# [6] = target: Gal(b1-4)GlcNAc(b1-2)[Gal(b1-4)GlcNAc(b1-4)]Man(a1-3)[GlcNAc(b1-4)][Gal(b1-4)GlcNAc(b1-2)[Gal(b1-4)GlcNAc(b1-6)]Man(a1-6)]Man(b1-4)GlcNAc(b1-4)GlcNAc
# In short: as §1
# [7] = target: Gal(b1-4)GlcNAc(b1-2)[Gal(b1-4)GlcNAc(b1-6)]Man(a1-6)[Gal(b1-4)GlcNAc(b1-2)Man(a1-3)]Man(b1-4)GlcNAc(b1-4)GlcNAc
# In short: as §1
# [8] = target: Gal(b1-4)GlcNAc(b1-2)[Gal(b1-4)GlcNAc(b1-6)]Man(a1-6)[Gal(b1-4)GlcNAc(b1-2)Man(a1-3)]Man(b1-4)GlcNAc(b1-4)[Fuc(a1-6)]GlcNAc
# In short: as §1
# [9] = target: Gal(b1-4)GlcNAc(b1-2)[Gal(b1-4)GlcNAc(b1-6)]Man(a1-6)[GlcNAc(b1-4)][Gal(b1-4)GlcNAc(b1-2)Man(a1-3)]Man(b1-4)GlcNAc(b1-4)GlcNAc
# In short: as §1
# [10] = target: Gal(b1-4)GlcNAc(b1-2)[Gal(b1-4)GlcNAc(b1-6)]Man(a1-6)[GlcNAc(b1-4)][Gal(b1-4)GlcNAc(b1-2)[Gal(b1-4)GlcNAc(b1-4)]Man(a1-3)]Man(b1-4)GlcNAc(b1-4)[Fuc(a1-6)]GlcNAc
# In short: as §1
# [11] = target: Gal(b1-4)GlcNAc(b1-3)Gal(b1-3)GalNAc
# In short: as §1
# [12] = target: Gal(b1-4)GlcNAc(b1-3)Gal(b1-3)GlcNAc
# In short: as §1
# [13] = target: Gal(b1-4)GlcNAc(b1-3)Gal(b1-4)Glc
# In short: as §1
# [14] = target: Gal(b1-4)GlcNAc(b1-3)Gal(b1-4)GlcNAc
# In short: as §1
# [15] = target: Gal(b1-4)GlcNAc(b1-3)Gal(b1-4)GlcNAc(b1-2)Man(a1-3)[Gal(b1-4)GlcNAc(b1-3)Gal(b1-4)GlcNAc(b1-2)Man(a1-6)]Man(b1-4)GlcNAc(b1-4)GlcNAc
# In short: as §1
# [16] = target: Gal(b1-4)GlcNAc(b1-3)Gal(b1-4)GlcNAc(b1-2)Man(a1-3)[Gal(b1-4)GlcNAc(b1-3)Gal(b1-4)GlcNAc(b1-2)Man(a1-6)]Man(b1-4)GlcNAc(b1-4)[Fuc(a1-6)]GlcNAc
# In short: as §1
# [17] = target: Gal(b1-4)GlcNAc(b1-3)Gal(b1-4)GlcNAc(b1-2)[Gal(b1-4)GlcNAc(b1-3)Gal(b1-4)GlcNAc(b1-6)]Man(a1-6)[Gal(b1-4)GlcNAc(b1-3)Gal(b1-4)GlcNAc(b1-2)Man(a1-3)]Man(b1-4)GlcNAc(b1-4)GlcNAc
# In short: as §1
# [18] = target: Gal(b1-4)GlcNAc(b1-3)Gal(b1-4)GlcNAc(b1-2)[Gal(b1-4)GlcNAc(b1-3)Gal(b1-4)GlcNAc(b1-6)]Man(a1-6)[Gal(b1-4)GlcNAc(b1-3)Gal(b1-4)GlcNAc(b1-2)Man(a1-3)]Man(b1-4)GlcNAc(b1-4)[Fuc(a1-6)]GlcNAc
# In short: as §1
binder,measurement,setting,value
B1,glycan array binding signal (z-score),[1],0.399
same,glycan array binding signal (z-score),[2],3
same,glycan array binding signal (z-score),[3],-0.804
same,glycan array binding signal (z-score),[4],-0.156
same,glycan array binding signal (z-score),[5],-0.27
same,glycan array binding signal (z-score),[6],-0.555
same,glycan array binding signal (z-score),[7],-0.33
same,glycan array binding signal (z-score),[8],-0.401
same,glycan array binding signal (z-score),[9],-0.77
same,glycan array binding signal (z-score),[10],-0.442
same,glycan array binding signal (z-score),[11],0.359
same,glycan array binding signal (z-score),[12],-0.694
same,glycan array binding signal (z-score),[13],-0.514
same,glycan array binding signal (z-score),[14],-0.11
same,glycan array binding signal (z-score),[15],0.398
same,glycan array binding signal (z-score),[16],-0.365
same,glycan array binding signal (z-score),[17],3.03
same,glycan array binding signal (z-score),[18],-0.226

# Exported tab-delimited: part of the list above.
binder	measurement	setting	value
B1	glycan array binding signal (z-score)	[12]	-0.694
same	glycan array binding signal (z-score)	[13]	-0.514
